The subject of this data set is 434 repressor / 434R[alpha3(P22R)] heterodimer. Nature of the data set: filter binding. The following applies: nitrocellulose filter binding, CB buffer pH 8, 10 mM MgCl2, 50 mM KCl, room temperature, repressor 1.5-100 nM; purified recombinant protein; protein details: 1:1 mixture of the two purified repressors; label: 5'-32P.

Experimental findings from US5554510 are described below.

For at least one entry, the source does not settle the construct or the ends of the probe.

Take “ATTTAAGTTTTATTGT (double strand) [16 bp P22/434 hybrid operator]”: the binding result is “binds”.
